Earlier results as cited in patent US20240066097A1 (priority 2022, published 2024).
Converted amounts (≈) assume the structure as drawn. For part of these data: At least one compound was matched to its structure with a doubt left. Some of these results come from one statement about several compounds together.

Tests used:
[1] = in vivo
[2] = test system: SARS coronaviruses

Row | SMILES | half life [1] | IC50 [2] [µg/mL]
1 | O=c1c(O)c(-c2ccc(O)cc2)oc2cc(O)cc(O)c12 [Kaempferol] | less than 28 hours | 
2 | COC(=O)[C@]1(C)CC[C@]2(C)CC[C@]3(C)C4=CC=C5C(=CC(=O)C(O)=C5C)[C@]4(C)CC[C@@]3(C)[C@@H]2C1 [Pristimerin] |  | 2.55 (≈ 5.49 µM)
3 | O=c1c(O)c(-c2ccc(O)c(O)c2)oc2cc(O)cc(O)c12 [Quercetin] | less than 28 hours | 
